Reference: paper PMC4110944, “Probing SH2-domains using Inhibitor Affinity Purification (IAP)” (Proteome Science, 2014)

Tested on: SH2 proteins
Assay: Pull-down with immobilized probe 1 from lysates of Colo205 cells treated with pervanadate or water
Assay type: binding, human
Details: for SH2-protein LFQ intensity ratio: triplicates

SMILES: CCCCCN(CCOCCOCCN)C(=O)[C@H](CCC(=O)O)NC(=O)[C@H](Cc1ccc(C(F)(F)P(=O)(O)O)cc1)NC(C)=O [probe 1]
- SH2-protein LFQ intensity ratio (Colo205, control without pervanadate): 14%
- number of SH2 proteins quantified in three replicates (Colo205, out of 23 present in the proteome): 8
- SH2-protein LFQ intensity ratio (Colo205, pervanadate treated samples): 7%
